Measured values reported in PubChem BioAssay AID504847 (National Center for Advancing Translational Sciences (NCATS), 2011).
Where “and” joins values, the source holds several entries; their conditions need not be identical. Identical values can stand only once. Out of some 400,000 compounds screened, about 3,700 (0.93%) were called active. Inconclusive results, whose numbers are uncertain, are shown with a selection of clear calls. Calls follow the shape of the dose curve; as a rule, active = well fitted inhibition curve with a large enough effect; inconclusive = small, poorly fitted or top-dose-only effect, or another doubt; inactive = no such curve, though single readings can be large or run the other way. Potencies of inconclusive entries are doubtful fits and often do not repeat.

By UniProt entry, the sequences of proteins in these tests, tags left out.
UniProt P11473, whole entry, looked up: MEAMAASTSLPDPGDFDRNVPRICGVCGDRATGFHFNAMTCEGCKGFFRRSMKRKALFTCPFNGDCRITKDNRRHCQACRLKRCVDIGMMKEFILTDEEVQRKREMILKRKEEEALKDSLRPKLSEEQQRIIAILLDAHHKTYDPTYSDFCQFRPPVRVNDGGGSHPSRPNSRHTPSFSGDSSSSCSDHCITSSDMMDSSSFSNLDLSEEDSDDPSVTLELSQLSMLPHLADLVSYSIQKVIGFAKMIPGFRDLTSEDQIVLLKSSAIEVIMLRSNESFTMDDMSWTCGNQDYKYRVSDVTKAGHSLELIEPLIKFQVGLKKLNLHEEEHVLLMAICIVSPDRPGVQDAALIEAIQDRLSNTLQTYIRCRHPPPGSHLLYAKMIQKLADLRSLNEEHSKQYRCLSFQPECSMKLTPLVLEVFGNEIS

The compounds below were run against Vitamin D3 receptor (Homo sapiens) (UniProt P11473) (assay: Inhibitors of the vitamin D receptor (VDR): qHTS). Conditions: VDR-SRC2-3 peptide fluorescence polarization, 2 h; max response, negative = inhibition: active compounds read low.
Procedure, shortened: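 Fluorescence polarization assay of small-molecule disruption of VDR binding to coregulator peptide SRC2-3. Compounds and controls pin-transferred, then read after 2 h incubation at ambient room temperature.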
% is scaled to controls: 0 for no effect and ±100 for the full control effect; potency is read from the fitted curve at half-maximal effect.

Potency, inconclusive:
CN1CCN(C(=S)c2ccc(Br)cc2)CC1 89.1 µM [inhibitor, single point], Cc1cccc(CNC(=O)c2ccc3c(c2)N(C)CCS3)c1 100 µM [inhibitor, single point], C=C1C(=O)O[C@@H]2C[C@@H](C)[C@@H]3C=CC(=O)[C@@]3(C)[C@@H](OC(C)=O)[C@H]12 56.2 µM [inhibitor, partial curve, poor fit], c1cncc(-c2cncnc2NCc2cccs2)c1 44.7 µM [inhibitor, partial curve], COCCCNc1nc2ccccc2nc1NS(=O)(=O)c1ccc(C)c(C)c1 2.24 µM [inhibitor, partial curve, poor fit], COc1cccc(C2C(C(=O)c3ccc(C)o3)=C(O)C(=O)N2c2cc(C)on2)c1 (centres undefined) 79.4 µM [inhibitor, partial curve, poor fit], Cc1cccc(NC(=O)/C(C#N)=C/c2ccccc2Cl)n1 100 µM [inhibitor, single point], CO[C@H](C(=O)[C@@H](O)[C@@H](C)O)C1Cc2cc3cc(O[C@H]4C[C@@H](O[C@H]5C[C@@H](O)[C@H](O)[C@@H](C)O5)[C@@H](O)[C@@H](C)O4)c(C)c(O)c3c(O)c2C(=O)[C@H]1O[C@H]1C[C@@H](O[C@H]2C[C@@H](O[C@H]3C[C@](C)(O)[C@H](O)[C@@H](C)O3)[C@H](O)[C@@H](C)O2)[C@H](O)[C@@H](C)O1 (some centres undefined) 28.2 µM [inhibitor, full curve], Cc1ccc(-n2cccc2/C=C2/C(=N)N3C(=NC2=O)SN=C3S(C)(=O)=O)cc1Cl 100 µM [inhibitor, single point], Cc1oc(-c2ccccc2)nc1C(=O)N1CCN(c2ccc(F)cc2)CC1 89.1 µM [inhibitor, single point], Cc1ccc(NC(=O)CN2C(=O)NC3(CCCCCCC3)C2=O)cc1C 100 µM [inhibitor, single point], Cc1ccc2oc(C(=O)N(C)Cc3ccc(C)o3)c(C)c2c1 39.8 µM [inhibitor, single point], O=C1C(Cl)=C(NC2CCCCC2)C(=O)N1c1ccc(Cl)cc1 89.1 µM [inhibitor, single point], CS(=O)(=O)c1ccc(C(=O)OCC(=O)N2CCCc3ccccc32)cc1 79.4 µM [inhibitor, partial curve], CC(=O)N1c2ccc(S(=O)(=O)NCC3CCC(C(=O)Nc4cccc(C)n4)CC3)cc2CC1C (centres undefined) 10 µM [inhibitor, partial curve, poor fit], Cc1cc(/C=C2/C(=N)N3C(=NC2=O)SN=C3S(C)(=O)=O)c(C)n1-c1ccccc1 56.2 µM [inhibitor, partial curve, poor fit], O=C(Cn1cc(SCc2ccccc2Cl)c2ccccc21)N1CCOCC1 11.2 µM [inhibitor, single point], O=c1cc(Br)c(O)c(Br)cc1Br 56.2 µM [inhibitor, partial curve, poor fit], CCS(=O)(=O)c1ncc(Cl)c(C(=O)Nc2ccc(S(=O)(=O)N(C)c3ccccc3)cc2)n1 14.1 µM [inhibitor, partial curve, poor fit] and 14.1 µM [inhibitor, full curve, poor fit], CCOC(=O)C1CCN(C(=O)CS(=O)Cc2nc(-c3ccc(C)cc3)oc2C)CC1 (centres undefined) 56.2 µM [inhibitor, partial curve, poor fit], COc1ccc(OC)c(N2C(=O)C(Cl)=C(N3CCOCC3)C2=O)c1 39.8 µM [inhibitor, full curve, poor fit], COc1ccc(N2C(=O)/C(=C3/C=CC=CN3C)SC2=S)cc1 3.98 µM [inhibitor, full curve, poor fit], O=C(NNc1ccccc1[N+](=O)[O-])Nc1ccccc1 56.2 µM [inhibitor, partial curve, poor fit], C=CCn1c(SCC(=O)N2CCOCC2)nc2ccccc2c1=O 28.2 µM [inhibitor, single point]

Potency, active:
COc1ccccc1NC(=O)CSc1nc2c(sc3ccccc32)c(=O)n1CCN(C)C 79.4 µM, Cc1ccccc1C(=O)Nc1cccc(NC(=O)c2ccc(C(C)(C)C)cc2)c1 50.1 µM, Cc1cc(C(=O)OCC(N)=O)c(C)n1-c1ccccc1 79.4 µM, COc1ccc(C(=O)/C=C/Sc2nc3ccccc3o2)cc1 17.8 µM, C=CC(C)(C)c1[nH]c2ccccc2c1C1=C(O)C(=O)C(c2c[nH]c3c(CC=C(C)C)cccc23)=C(O)C1=O 17.8 µM, CN(C)c1ccc(-c2cc(-n3ccnc3)ncn2)cc1 50.1 µM, CC(C)n1cnc2c(NCc3ccccc3)cc(OCC3CCN(C)CC3)cc21 50.1 µM, Nc1ncnc2c1ncn2[C@@H]1O[C@H](CNCc2ccc(-c3cc(C(F)(F)F)ccc3Cl)o2)[C@@H](O)[C@H]1O 28.2 µM, Cc1ccc([N+](=O)[O-])cc1Nc1nc(N2CCCC2)nc(N2CCCC2)n1 79.4 µM

Max response, negative = inhibition, inactive:
CC(Oc1ccc(Cl)cc1)C(=O)Nc1ccccc1C(=O)N1CCOCC1 (centres undefined) -8.1%, COc1ccc(C(C#N)N2CCCCC2)cc1OC (centres undefined) 7.54%, CCOC(=O)CN1CC23C=CC(O2)C(C(=O)NCc2ccc(C)cc2)C3C1=O (centres undefined) -3.15%, COc1ccc(/C=N/N=C2/NC(=O)C(CC(=O)O)S2)cc1OCc1ccc(Cl)cc1Cl (centres undefined) -22.6%, Oc1ccc2ccccc2c1/C=N/c1nccs1 -3.16%, O=C(NCC(=O)N1CCC(Cc2ccccc2)CC1)c1ccc(Cl)cc1 -21%
